Laboratory results reported in patent US20180066067A1 (Novartis, published 2018).
Results are given in words; binding and its absence hold for the method and conditions named. For part of these data: Binding seen in cells or lysates may run through a third protein. Some entries that bind do so weakly or less than the wild type.

Protein sequences, listed by entry. Tags and fused reporters are not part of them. Lines headed by an entry give the natural chain unless they say otherwise; changes in a name come on top.
UniProt Q9ULT6: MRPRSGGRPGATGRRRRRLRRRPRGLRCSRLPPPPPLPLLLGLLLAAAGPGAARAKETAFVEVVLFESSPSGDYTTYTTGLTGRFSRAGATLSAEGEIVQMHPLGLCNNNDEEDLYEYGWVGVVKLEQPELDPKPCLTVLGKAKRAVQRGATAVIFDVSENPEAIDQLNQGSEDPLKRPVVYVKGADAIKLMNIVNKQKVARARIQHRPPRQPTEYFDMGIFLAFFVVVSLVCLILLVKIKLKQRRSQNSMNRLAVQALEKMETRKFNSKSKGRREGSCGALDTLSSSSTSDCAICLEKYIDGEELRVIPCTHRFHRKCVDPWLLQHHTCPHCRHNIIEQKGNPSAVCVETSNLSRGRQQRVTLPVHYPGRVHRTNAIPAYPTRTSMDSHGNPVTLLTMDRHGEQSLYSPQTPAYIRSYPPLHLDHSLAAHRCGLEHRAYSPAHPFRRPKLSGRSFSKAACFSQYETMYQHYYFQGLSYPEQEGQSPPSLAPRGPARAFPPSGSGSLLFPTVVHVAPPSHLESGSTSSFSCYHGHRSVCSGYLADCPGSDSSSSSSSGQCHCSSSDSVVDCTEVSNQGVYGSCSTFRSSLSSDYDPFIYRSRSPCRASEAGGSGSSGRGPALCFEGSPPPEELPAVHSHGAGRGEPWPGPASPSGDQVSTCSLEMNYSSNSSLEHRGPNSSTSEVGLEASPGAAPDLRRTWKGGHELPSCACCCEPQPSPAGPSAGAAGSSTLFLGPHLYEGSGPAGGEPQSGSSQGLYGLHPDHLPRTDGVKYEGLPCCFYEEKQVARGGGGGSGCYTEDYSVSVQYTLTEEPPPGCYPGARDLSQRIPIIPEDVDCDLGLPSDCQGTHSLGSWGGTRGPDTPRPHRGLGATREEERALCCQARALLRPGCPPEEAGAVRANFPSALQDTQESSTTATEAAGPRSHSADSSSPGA

Legend:
[1] = target: ZNRF3 ECD-TM (extracellular domain-transmembrane, amino acids 1-256) (human) (UniProt Q9ULT6); assay: summary sentence on the cell-based binding assay and FIG. 9
[2] = target: Myc-ZNRF3 ΔRING (human) (UniProt Q9ULT6); assay: coimmunoprecipitation with anti-Myc from HEK293 lysates after RSPO1-GFP conditioned medium, anti-GFP blot
[3] = target: ZNRF3 ECD-TM (extracellular domain-transmembrane, amino acids 1-256) (human) (UniProt Q9ULT6); assay: cell-based binding assay: RSPO1-GFP conditioned medium on transfected HEK293 cells, immunofluorescence with anti-GFP and anti-Myc

binding [1]: binds
binding [2]: binds
binding [3]: binds
B1: RSPO1-GFP (ligand, UniProt Q2MKA7 21-263, looked up)
chain: SRGIKGKRQRRISAEGSQACAKGCELCSEVNGCLKCSPKLFILLERNDIRQVGVCLPSCPPGYFDARNPDMNKCIKCKIEHCEACFSHNFCTKCKEGLYLHKGRCYPACPEGSSAANGTMECSSPAQCEMSEWSPWGPCSKKQQLCGFRRGSEERTRRVLHAPVGDHAACSDTKETRRCTVRRVPCPEGQKRRKGGQGRRENANRNLARKESKEAGAGSRRRKGQQQQQQQGTVGPLTSAGPA
notes: Used as conditioned medium; The order of the parts follows the printed name; also called R-spondin 1 GFP fusion; R-spondin; not shown: GFP
